Laboratory results: PMC1820829
These are yes or no findings as the source states them, for the method shown. In cells and extracts the contact can be indirect.

Chains of the proteins cited; added tags and fusions are not shown.
UniProt P05804: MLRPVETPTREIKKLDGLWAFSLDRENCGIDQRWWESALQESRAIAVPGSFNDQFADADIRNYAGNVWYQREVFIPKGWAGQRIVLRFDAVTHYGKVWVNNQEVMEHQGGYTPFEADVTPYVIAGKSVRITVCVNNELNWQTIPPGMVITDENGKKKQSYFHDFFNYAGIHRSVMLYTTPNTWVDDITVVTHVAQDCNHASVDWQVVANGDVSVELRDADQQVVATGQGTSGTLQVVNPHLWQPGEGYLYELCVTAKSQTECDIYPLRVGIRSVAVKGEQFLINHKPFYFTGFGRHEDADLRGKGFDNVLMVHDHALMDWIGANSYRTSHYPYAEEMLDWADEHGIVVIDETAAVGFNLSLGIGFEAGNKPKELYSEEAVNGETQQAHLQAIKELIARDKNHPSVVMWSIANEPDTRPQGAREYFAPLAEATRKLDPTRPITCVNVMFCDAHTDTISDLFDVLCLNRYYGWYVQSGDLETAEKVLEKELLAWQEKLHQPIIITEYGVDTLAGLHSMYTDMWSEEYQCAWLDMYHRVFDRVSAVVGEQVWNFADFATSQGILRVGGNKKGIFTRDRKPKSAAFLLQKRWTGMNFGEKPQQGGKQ

Target: GUS-YC (UniProt P05804)
Assay: split reporter; BiFC with Citrine split into YN155 and YC155; co-expression in agroinfiltrated N. benthamiana leaves, intact living tissue observed by confocal microscopy at 46 hpi

B1: gN-YN (protein, UniProt Q40392 1-1144)
chain: MASSSSSSRWSYDVFLSFRGEDTRKTFTSHLYEVLNDKGIKTFQDDKRLEYGATIPGELCKAIEESQFAIVVFSENYATSRWCLNELVKIMECKTRFKQTVIPIFYDVDPSHVRNQKESFAKAFEEHETKYKDDVEGIQRWRIALNEAANLKGSCDNRDKTDADCIRQIVDQISSKLCKISLSYLQNIVGIDTHLEKIESLLEIGINGVRIMGIWGMGGVGKTTIARAIFDTLLGRMDSSYQFDGACFLKDIKENKRGMHSLQNALLSELLREKANYNNEEDGKHQMASRLRSKKVLIVLDDIDNKDHYLEYLAGDLDWFGNGSRIIITTRDKHLIEKNDIIYEVTALPDHESIQLFKQHAFGKEVPNENFEKLSLEVVNYAKGLPLALKVWGSLLHNLRLTEWKSAIEHMKNNSYSGIIDKLKISYDGLEPKQQEMFLDIACFLRGEEKDYILQILESCHIGAEYGLRILIDKSLVFISEYNQVQMHDLIQDMGKYIVNFQKDPGERSRLWLAKEVEEVMSNNTGTMAMEAIWVSSYSSTLRFSNQAVKNMKRLRVFNMGRSSTHYAIDYLPNNLRCFVCTNYPWESFPSTFELKMLVHLQLRHNSLRHLWTETKHLPSLRRIDLSWSKRLTRTPDFTGMPNLEYVNLYQCSNLEEVHHSLGCCSKVIGLYLNDCKSLKRFPCVNVESLEYLGLRSCDSLEKLPEIYGRMKPEIQIHMQGSGIRELPSSIFQYKTHVTKLLLWNMKNLVALPSSICRLKSLVSLSVSGCSKLESLPEEIGDLDNLRVFDASDTLILRPPSSIIRLNKLIILMFRGFKDGVHFEFPPVAEGLHSLEYLNLSYCNLIDGGLPEEIGSLSSLKKLDLSRNNFEHLPSSIAQLGALQSLDLKDCQRLTQLPELPPELNELHVDCHMALKFIHYLVTKRKKLHRVKLDDAHNDTMYNLFAYTMFQNISSMRHDISASDSLSLTVFTGQPYPEKIPSWFHHQGWDSSVSVNLPENWYIPDKFLGFAVCYSRSLIDTTAHLIPVCDDKMSRMTQKLALSECDTESSNYSEWDIHFFFVPFAGLWDTSKANGKTPNDYGIIRLSFSGEEKMYGLRLLYKEGPEVNALLQMRENSNEPTEHSTGIRRTQYNNRTSFYELING
- binding: no binding
